This is one part of the list.
Assays:
Assay in all cases: log2 fold change, soluble protein after heating vs DMSO (PISA); higher = thermal stabilisation; K562 cells, 10 uM, 30 min; active = over 0.2 and 3.5 SD of the protein, either way, in both replicates (recomputed)
[1] = compound: NC(=O)Nc1cc(-c2cccc(F)c2)sc1C(=O)N[C@H]1CCCNC1
How it was run: (§1)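 K562 cells (2×10^6 cells/mL) were treated with 10 μM compound for 30 min, and aliquots were heated for 3 min over 48°C-58°C. Pooled aliquots were extracted in PBS with 0.5% NP-40 at 4°C, and the supernatant after 21,000xg for 90 min was measured by TMTpro 16plex LC-MS/MS with channel sums equalised. Reported thermal stability, relative to control samples and from duplicates, is a log2 fold change.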

Chains of the proteins cited; added tags and fusions are not shown. Lines headed by an entry give the natural chain unless they say otherwise; changes in a name come on top.
UniProt Q9NWS6: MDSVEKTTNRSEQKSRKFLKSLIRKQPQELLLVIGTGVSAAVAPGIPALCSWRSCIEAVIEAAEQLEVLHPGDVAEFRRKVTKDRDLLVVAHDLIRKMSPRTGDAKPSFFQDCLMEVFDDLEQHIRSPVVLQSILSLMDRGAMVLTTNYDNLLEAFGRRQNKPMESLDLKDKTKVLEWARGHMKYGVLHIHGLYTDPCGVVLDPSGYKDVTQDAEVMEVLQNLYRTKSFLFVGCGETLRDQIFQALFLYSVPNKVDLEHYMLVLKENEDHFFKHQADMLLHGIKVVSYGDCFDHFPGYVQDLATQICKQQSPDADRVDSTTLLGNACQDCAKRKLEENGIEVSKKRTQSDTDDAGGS
UniProt P07099: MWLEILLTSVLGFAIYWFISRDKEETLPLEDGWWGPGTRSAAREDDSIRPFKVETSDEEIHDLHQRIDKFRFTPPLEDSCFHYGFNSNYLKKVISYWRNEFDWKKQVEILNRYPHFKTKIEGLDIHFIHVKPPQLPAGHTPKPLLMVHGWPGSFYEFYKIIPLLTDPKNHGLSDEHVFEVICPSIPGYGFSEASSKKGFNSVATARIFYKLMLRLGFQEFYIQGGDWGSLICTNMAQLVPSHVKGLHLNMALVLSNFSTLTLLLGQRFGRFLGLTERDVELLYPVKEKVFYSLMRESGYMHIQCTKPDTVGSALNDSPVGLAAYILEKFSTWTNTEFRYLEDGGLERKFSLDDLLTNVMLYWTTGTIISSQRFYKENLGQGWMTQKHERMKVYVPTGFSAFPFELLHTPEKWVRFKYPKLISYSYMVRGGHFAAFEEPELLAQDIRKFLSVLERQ
UniProt Q9C073: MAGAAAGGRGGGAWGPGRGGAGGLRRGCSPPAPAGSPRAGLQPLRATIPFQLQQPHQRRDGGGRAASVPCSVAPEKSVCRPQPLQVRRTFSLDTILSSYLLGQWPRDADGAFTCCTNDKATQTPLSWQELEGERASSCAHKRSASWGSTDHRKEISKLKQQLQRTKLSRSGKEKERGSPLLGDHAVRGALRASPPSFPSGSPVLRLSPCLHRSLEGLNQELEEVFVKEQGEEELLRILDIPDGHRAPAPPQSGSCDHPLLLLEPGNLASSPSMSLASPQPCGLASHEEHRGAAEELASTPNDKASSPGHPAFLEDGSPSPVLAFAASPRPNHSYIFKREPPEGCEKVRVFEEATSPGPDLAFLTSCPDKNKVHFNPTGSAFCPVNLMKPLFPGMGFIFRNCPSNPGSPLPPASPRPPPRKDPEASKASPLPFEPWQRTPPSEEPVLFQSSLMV
UniProt Q96E09: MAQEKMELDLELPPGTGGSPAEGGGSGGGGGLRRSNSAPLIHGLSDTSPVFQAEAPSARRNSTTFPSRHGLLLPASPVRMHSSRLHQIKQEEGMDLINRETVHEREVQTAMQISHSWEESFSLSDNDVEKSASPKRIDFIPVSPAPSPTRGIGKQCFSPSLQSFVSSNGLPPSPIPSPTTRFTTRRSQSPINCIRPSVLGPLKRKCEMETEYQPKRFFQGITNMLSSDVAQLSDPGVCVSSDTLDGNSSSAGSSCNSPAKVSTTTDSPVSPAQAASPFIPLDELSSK
UniProt O75063: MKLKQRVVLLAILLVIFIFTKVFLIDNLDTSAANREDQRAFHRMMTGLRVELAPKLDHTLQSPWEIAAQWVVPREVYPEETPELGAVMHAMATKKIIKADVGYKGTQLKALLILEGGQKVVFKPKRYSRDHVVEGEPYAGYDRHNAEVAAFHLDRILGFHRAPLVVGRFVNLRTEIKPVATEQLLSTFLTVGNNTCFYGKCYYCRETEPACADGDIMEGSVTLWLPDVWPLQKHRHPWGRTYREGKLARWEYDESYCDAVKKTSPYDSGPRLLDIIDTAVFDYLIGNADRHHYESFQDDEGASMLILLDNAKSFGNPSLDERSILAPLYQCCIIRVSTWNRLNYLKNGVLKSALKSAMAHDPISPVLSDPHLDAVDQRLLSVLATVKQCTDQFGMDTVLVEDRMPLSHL
UniProt O75477: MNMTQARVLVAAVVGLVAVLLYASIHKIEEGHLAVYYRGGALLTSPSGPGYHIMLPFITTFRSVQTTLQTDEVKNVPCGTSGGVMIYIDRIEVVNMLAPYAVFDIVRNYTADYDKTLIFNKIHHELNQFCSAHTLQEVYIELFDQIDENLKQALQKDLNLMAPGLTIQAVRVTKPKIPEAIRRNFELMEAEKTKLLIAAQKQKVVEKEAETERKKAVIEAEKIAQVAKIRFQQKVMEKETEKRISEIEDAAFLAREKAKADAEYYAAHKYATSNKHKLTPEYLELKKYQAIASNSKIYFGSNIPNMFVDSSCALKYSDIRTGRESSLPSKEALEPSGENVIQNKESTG
UniProt O43491, whole entry, looked up: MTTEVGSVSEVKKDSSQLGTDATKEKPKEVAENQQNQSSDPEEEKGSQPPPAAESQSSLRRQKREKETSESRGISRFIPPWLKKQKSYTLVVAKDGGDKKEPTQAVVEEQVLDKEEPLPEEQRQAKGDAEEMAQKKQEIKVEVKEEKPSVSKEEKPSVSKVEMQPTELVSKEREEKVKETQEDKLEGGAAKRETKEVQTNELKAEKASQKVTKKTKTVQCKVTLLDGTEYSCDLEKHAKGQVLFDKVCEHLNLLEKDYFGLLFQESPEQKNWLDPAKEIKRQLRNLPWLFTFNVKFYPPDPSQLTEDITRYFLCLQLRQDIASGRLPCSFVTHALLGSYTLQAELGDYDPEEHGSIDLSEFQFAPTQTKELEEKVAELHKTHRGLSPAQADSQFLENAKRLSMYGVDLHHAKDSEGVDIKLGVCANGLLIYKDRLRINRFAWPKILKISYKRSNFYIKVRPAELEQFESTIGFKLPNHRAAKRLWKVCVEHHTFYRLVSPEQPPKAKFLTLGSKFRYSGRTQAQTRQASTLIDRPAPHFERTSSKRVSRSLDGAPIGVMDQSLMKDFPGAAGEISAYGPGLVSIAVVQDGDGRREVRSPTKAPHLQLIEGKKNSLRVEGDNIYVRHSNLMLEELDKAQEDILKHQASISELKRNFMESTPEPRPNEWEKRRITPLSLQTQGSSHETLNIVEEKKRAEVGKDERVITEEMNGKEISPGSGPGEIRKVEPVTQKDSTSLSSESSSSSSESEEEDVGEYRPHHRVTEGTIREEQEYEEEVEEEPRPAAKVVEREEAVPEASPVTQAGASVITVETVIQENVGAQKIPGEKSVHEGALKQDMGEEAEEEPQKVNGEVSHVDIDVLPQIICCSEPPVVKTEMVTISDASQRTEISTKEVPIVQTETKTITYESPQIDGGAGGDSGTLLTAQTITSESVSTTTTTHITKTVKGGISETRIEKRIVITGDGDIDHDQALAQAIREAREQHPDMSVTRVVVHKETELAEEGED
UniProt Q9Y6I3: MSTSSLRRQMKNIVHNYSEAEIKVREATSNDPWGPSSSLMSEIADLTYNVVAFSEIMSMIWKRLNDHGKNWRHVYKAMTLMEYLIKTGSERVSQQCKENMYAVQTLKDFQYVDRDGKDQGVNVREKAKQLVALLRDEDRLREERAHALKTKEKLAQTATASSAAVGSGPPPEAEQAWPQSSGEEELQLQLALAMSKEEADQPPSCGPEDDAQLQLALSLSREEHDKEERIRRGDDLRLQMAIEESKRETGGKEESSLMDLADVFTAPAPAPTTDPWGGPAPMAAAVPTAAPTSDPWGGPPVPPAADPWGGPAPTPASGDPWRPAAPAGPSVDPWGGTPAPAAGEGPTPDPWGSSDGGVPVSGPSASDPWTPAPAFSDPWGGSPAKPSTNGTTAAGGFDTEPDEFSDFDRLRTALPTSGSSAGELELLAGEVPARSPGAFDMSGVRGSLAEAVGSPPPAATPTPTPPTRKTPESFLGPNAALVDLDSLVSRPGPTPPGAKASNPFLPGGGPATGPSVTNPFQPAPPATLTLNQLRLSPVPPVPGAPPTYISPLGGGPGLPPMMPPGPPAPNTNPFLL
UniProt P34913, whole entry, looked up: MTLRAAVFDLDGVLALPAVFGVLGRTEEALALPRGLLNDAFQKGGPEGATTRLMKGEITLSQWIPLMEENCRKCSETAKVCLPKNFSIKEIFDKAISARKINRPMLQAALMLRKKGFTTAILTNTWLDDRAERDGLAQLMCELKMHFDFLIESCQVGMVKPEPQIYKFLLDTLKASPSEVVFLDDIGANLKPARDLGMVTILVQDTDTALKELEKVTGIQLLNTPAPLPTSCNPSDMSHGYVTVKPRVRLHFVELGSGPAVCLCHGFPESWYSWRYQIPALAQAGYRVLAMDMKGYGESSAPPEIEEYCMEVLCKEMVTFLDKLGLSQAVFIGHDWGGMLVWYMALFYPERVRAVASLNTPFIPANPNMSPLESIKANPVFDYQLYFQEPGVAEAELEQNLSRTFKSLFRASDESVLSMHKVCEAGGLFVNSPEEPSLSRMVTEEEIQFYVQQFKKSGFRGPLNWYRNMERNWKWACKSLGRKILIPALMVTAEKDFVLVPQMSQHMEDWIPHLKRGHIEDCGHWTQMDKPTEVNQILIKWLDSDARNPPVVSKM
UniProt Q96KP1: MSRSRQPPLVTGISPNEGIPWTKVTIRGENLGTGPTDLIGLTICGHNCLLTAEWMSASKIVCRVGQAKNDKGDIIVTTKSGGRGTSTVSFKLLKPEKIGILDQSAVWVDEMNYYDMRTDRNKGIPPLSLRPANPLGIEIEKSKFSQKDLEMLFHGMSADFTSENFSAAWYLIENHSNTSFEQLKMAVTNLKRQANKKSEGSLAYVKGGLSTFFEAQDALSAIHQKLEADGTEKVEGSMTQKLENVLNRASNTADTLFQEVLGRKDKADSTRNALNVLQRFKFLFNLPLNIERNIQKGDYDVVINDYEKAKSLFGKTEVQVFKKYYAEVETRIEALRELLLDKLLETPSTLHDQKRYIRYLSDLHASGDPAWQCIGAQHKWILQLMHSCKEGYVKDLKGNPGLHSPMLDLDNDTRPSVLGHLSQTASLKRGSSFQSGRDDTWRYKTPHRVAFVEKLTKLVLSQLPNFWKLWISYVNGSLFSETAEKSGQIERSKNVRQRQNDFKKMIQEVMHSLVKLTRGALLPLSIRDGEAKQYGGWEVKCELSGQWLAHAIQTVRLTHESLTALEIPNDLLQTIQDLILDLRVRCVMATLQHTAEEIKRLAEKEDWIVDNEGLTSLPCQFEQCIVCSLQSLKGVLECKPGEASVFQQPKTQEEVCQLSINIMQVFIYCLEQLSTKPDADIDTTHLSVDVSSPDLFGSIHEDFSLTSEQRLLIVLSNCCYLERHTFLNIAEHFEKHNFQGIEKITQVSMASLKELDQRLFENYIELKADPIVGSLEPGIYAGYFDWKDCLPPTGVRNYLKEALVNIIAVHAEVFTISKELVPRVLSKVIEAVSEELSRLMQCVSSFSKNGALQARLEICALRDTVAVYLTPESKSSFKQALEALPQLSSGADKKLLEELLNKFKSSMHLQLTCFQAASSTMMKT
UniProt Q96B26, whole entry, looked up: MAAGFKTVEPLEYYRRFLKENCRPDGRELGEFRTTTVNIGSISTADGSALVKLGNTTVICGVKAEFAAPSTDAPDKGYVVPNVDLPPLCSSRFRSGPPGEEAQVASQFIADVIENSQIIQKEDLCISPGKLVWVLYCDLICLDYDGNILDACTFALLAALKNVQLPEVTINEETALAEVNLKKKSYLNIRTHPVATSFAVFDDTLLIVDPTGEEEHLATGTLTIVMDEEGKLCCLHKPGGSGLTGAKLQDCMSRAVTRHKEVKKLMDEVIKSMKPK
UniProt A0FGR8: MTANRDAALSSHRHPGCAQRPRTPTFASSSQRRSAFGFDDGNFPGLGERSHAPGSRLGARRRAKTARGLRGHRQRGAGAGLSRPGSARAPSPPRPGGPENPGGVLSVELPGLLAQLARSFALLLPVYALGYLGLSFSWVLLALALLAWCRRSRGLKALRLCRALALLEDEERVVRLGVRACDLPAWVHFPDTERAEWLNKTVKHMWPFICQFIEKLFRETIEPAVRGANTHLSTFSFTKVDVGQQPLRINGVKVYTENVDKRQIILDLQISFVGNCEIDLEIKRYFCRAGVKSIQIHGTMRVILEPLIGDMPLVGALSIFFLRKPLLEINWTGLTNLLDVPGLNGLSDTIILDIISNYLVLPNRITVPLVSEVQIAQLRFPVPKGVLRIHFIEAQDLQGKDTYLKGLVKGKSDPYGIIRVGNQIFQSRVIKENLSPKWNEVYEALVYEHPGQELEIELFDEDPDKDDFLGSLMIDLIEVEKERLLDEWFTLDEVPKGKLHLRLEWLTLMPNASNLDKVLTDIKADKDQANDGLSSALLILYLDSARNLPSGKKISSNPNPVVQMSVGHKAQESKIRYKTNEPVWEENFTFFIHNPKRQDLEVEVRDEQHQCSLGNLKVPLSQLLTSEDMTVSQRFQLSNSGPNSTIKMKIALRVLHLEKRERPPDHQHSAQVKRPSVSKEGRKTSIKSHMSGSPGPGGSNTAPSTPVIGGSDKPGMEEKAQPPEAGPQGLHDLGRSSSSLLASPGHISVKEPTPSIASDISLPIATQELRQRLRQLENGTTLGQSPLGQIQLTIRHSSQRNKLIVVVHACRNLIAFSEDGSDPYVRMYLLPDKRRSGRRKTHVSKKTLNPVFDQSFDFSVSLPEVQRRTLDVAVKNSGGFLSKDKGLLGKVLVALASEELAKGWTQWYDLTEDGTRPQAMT

[2] = compound: NC(=O)c1cnc(N[C@@H]2CCCC[C@@H]2N)nc1Nc1cccc(-n2nccn2)c1
How it was run: as §1

[3] = compound: NC1(c2ccc(-c3nc4ccn5c(=O)[nH]nc5c4cc3-c3ccccc3)cc2)CCC1
How it was run: as §1

[4] = compound: NCC(=O)Nc1ccc(-n2nc(C(F)(F)F)cc2-c2ccc3c(ccc4ccccc43)c2)cc1
How it was run: as §1

entinostat = compound: Nc1ccccc1NC(=O)c1ccc(CNC(=O)OCc2cccnc2)cc1 [entinostat]
How it was run: as §1

vorinostat = compound: O=C(CCCCCCC(=O)Nc1ccccc1)NO [vorinostat]
How it was run: as §1

citarinostat = compound: O=C(CCCCCCNC(=O)c1cnc(N(c2ccccc2)c2ccccc2Cl)nc1)NO [citarinostat]
How it was run: as §1

silmitasertib = compound: O=C(O)c1ccc2c(c1)nc(Nc1cccc(Cl)c1)c1ccncc12 [silmitasertib]
How it was run: as §1

[5] = compound: O=C1NC(=O)C(c2cnc3ccccn23)=C1c1cn2c3c(cc(F)cc13)CN(C(=O)N1CCCCC1)CC2
How it was run: as §1

[6] = compound: c1cc(OCCN2CCCCC2)cc(-c2n[nH]c3ccc(-c4nnc[nH]4)cc23)c1
How it was run: as §1

Target	log2 fold change [1]	log2 fold change [2]	log2 fold change [3]	log2 fold change [4]	log2 fold change (entinostat)	log2 fold change (vorinostat)	log2 fold change (citarinostat)	log2 fold change (silmitasertib)	log2 fold change [5]	log2 fold change [6]
FAM118A (UniProt Q9NWS6)	inactive: 0.052	inactive: -0.129	inactive: -0.351	inactive: 0.015	inactive: 0.149	inactive: 0.054	inactive: -0.289	inactive: 0.166	inactive: -0.088	inactive: 0.322
ERP29 (UniProt P30040)	inactive: -0.015	inactive: 0.012	inactive: 0.01	inactive: 0.04	inactive: -0.006	inactive: 0.008	inactive: 0.04	inactive: -0.032	inactive: -0.034	inactive: -0.039
ETHE1 (UniProt O95571)	inactive: -0.04	inactive: -0.003	inactive: 0.053	inactive: 0.004	inactive: -0.017	inactive: 0.017	inactive: -0.002	inactive: 0.018	inactive: -0.05	inactive: -0.02
EXOSC6 (UniProt Q5RKV6)	inactive: 0.055	inactive: 0.049	inactive: 0.054	inactive: 0.097	inactive: -0.035	inactive: -0.04	inactive: 0.015	inactive: -0.021	inactive: 0.087	inactive: -0.007
EPS15 (UniProt P42566)	inactive: -0.015	inactive: -0.074	inactive: -0.154	inactive: -0.09	inactive: 0.067	inactive: 0.019	inactive: 0.042	inactive: 0.082	inactive: -0.018	inactive: -0.007
FAM162A (UniProt Q96A26)	inactive: 0.011	inactive: -0.11	inactive: -0.025	inactive: -0.046	inactive: 0.023	inactive: -0.087	inactive: -0.127	inactive: -0.023	inactive: 0.018	inactive: 0.004
EXOSC2 (UniProt Q13868)	inactive: 0.053	inactive: -0.034	inactive: 0.013	inactive: -0.001	inactive: -0.015	inactive: -0.041	inactive: 0.008	inactive: 0.013	inactive: 0.062	inactive: -0.056
EPHX1 (UniProt P07099)	inactive: 0.028	inactive: 0.023	inactive: -0.014	inactive: 0.083	inactive: -0.051	inactive: -0.058	inactive: 0.047	inactive: -0.011	inactive: -0.015	inactive: -0.022
ESYT1 isoform 2 (UniProt Q9BSJ8)	inactive: 0.062	inactive: 0.004	inactive: -0.004	inactive: -0.044	inactive: 0.086	inactive: 0.122	inactive: 0.033	inactive: 0.041	inactive: 0.187	inactive: -0.048
FAM117A (UniProt Q9C073)	inactive: -0.135	inactive: 0	inactive: -0.05	inactive: -0.03	inactive: 0.046	inactive: -0.011	inactive: 0.043	active: -0.422	inactive: 0.038	active: -0.251
ETNPPL (UniProt Q8TBG4)	inactive: -0.066	inactive: 0	inactive: 0.113	inactive: -0.102	inactive: -0.008	inactive: 0.004	inactive: -0.136	inactive: 0.167	inactive: -0.002	inactive: 0.333
FABP5 (UniProt Q01469)	inactive: 0.016	inactive: 0.125	inactive: 0.045	inactive: 0.23	inactive: 0.005	inactive: -0.042	inactive: -0.012	inactive: 0.009	inactive: -0.036	inactive: -0.001
FAM122A (UniProt Q96E09)	inactive: -0.031	inactive: 0.076	inactive: -0.048	inactive: 0.023	inactive: 0.143	inactive: 0.025	inactive: -0.009	inactive: 0.005	inactive: -0.052	inactive: 0.062
FAM20B (UniProt O75063)	inactive: 0.053	inactive: 0.078	inactive: -0.127	inactive: 0.007	inactive: 0.006	inactive: -0.025	inactive: 0.047	inactive: -0.033	inactive: 0.046	inactive: -0.052
FAM120A isoform 6 (UniProt Q9NZB2)	inactive: 0.009	inactive: 0.102	inactive: 0.203	inactive: 0.119	inactive: -0.037	inactive: -0.078	inactive: -0.094	inactive: 0.148	inactive: 0.24	inactive: -0.122
ERLIN1 (UniProt O75477)	inactive: 0.083	inactive: -0.068	inactive: -0.066	inactive: -0.043	inactive: 0.111	inactive: 0.074	inactive: -0.01	inactive: -0.009	inactive: 0.084	inactive: -0.045
EPB41L2 (UniProt O43491)	inactive: -0.129	inactive: 0.034	inactive: 0.037	inactive: -0.034	inactive: -0.042	inactive: -0.02	inactive: 0.014	inactive: -0.01	inactive: -0.038	inactive: -0.023
EXOSC7 (UniProt Q15024)	inactive: 0.018	inactive: -0.015	inactive: 0.023	inactive: 0.01	inactive: -0.046	inactive: -0.043	inactive: 0.003	inactive: 0.019	inactive: -0.004	inactive: -0.078
EPN1 (UniProt Q9Y6I3)	inactive: 0.055	inactive: -0.01	inactive: -0.123	inactive: -0.026	inactive: 0.006	inactive: 0.027	inactive: 0.039	inactive: -0.033	inactive: 0.015	inactive: -0.043
ESS2 (UniProt Q96DF8)	inactive: 0.036	inactive: 0.048	inactive: -0.078	inactive: 0.069	inactive: -0.027	inactive: -0.012	inactive: 0.014	inactive: 0.04	inactive: 0.033	inactive: -0.017
EPHX2 (UniProt P34913)	inactive: -0.148	inactive: -0.05	inactive: -0.016	inactive: -0.015	inactive: 0.045	inactive: 0.113	inactive: 0.025	inactive: 0.003	inactive: -0.025	inactive: -0.037
FAM122B isoform 3 (UniProt Q7Z309)	inactive: -0.272	inactive: 0.018	inactive: 0.147	inactive: -0.035	inactive: -0.009	inactive: 0.086	inactive: 0.125	inactive: 0.096	inactive: 0.322	inactive: -0.144
FAM207A (UniProt Q9NSI2)	inactive: -0.005	inactive: 0.076	inactive: -0.165	inactive: -0.042	inactive: 0.052	inactive: 0.015	inactive: 0.106	inactive: 0.356	inactive: 0.099	inactive: -0.117
EPN2 (UniProt O95208)	inactive: -0.061	inactive: 0.022	inactive: -0.026	inactive: 0.031	inactive: -0.038	inactive: -0.04	inactive: -0.005	inactive: 0.092	inactive: -0.021	inactive: -0.05
ERCC4 (UniProt Q92889)	inactive: -0.404	inactive: -0.092	inactive: -0.432	inactive: -0.316	inactive: -0.039	inactive: -0.218	inactive: 0.004	inactive: 0.07	inactive: -0.144	inactive: -0.194
FAM136A (UniProt Q96C01)	inactive: -0.014	inactive: 0.007	inactive: -0.028	inactive: -0.009	inactive: 0.025	inactive: -0.023	inactive: 0.067	inactive: 0.013	inactive: -0.022	inactive: 0.019
EXOC2 (UniProt Q96KP1)	inactive: 0.039	inactive: -0.084	inactive: -0.218	inactive: -0.024	inactive: 0.052	inactive: -0.013	inactive: 0.105	inactive: 0.035	inactive: 0.028	inactive: -0.102
FAF1 (UniProt Q9UNN5)	inactive: 0.015	inactive: -0.063	inactive: -0.049	inactive: 0.001	inactive: -0.009	inactive: 0.009	inactive: 0.029	inactive: 0.009	inactive: -0.044	inactive: -0.013
EXOSC8 (UniProt Q96B26)	inactive: -0.048	inactive: -0.065	inactive: 0.035	inactive: -0.032	inactive: -0.041	inactive: -0.078	inactive: -0.009	inactive: 0.015	inactive: 0.019	inactive: -0.046
ESYT2 isoform 2 (UniProt A0FGR8)	inactive: -0.106	inactive: -0.069	inactive: -0.126	inactive: -0.083	inactive: -0.002	inactive: 0.021	inactive: 0.021	inactive: -0.004	inactive: -0.015	inactive: 0.027

An excerpt of these results, as comma-separated lines:
Target,log2 fold change [1],log2 fold change [2],log2 fold change [3],log2 fold change [4],log2 fold change (entinostat),log2 fold change (vorinostat),log2 fold change (citarinostat),log2 fold change (silmitasertib),log2 fold change [5],log2 fold change [6]
FAM20B (UniProt O75063),inactive: 0.053,inactive: 0.078,inactive: -0.127,inactive: 0.007,inactive: 0.006,inactive: -0.025,inactive: 0.047,inactive: -0.033,inactive: 0.046,inactive: -0.052
FAM120A isoform 6 (UniProt Q9NZB2),inactive: 0.009,inactive: 0.102,inactive: 0.203,inactive: 0.119,inactive: -0.037,inactive: -0.078,inactive: -0.094,inactive: 0.148,inactive: 0.24,inactive: -0.122

From the supplement of paper PMC10849652
